Results are given in words; binding and its absence hold for the method and conditions named. Some entries that bind do so weakly or less than the wild type. Sequences can lack the tags named with a protein.
Target: T1, wild type SA-protein (S-layer protein, slpA product) of L. acidophilus ATCC 4356 (Lactobacillus acidophilus ATCC 4356) (UniProt P35829)
T1 sequence: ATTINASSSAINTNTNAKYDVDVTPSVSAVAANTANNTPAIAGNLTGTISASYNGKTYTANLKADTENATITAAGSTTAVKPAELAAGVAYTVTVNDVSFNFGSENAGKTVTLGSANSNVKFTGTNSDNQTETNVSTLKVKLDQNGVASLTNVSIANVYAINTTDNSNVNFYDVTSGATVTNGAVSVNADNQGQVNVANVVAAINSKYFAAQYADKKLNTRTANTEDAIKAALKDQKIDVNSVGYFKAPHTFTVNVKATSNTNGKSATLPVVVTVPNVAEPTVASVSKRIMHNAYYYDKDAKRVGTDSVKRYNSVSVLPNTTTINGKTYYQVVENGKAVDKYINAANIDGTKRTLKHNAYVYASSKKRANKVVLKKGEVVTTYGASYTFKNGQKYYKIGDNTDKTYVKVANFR
Assay: mosaic S-layer of L. acidophilus transformants; 5 M LiCl extraction and FACS

B1: mutant SA-protein SA13c (c-myc insertion at position 156), produced in L. acidophilus (protein)
chain: ATTINASSSAINTNTNAKYDVDVTPSVSAVAANTANNTPAIAGNLTGTISASYNGKTYTANLKADTENATITAAGSTTAVKPAELAAGVAYTVTVNDVSFNFGSENAGKTVTLGSANSNVKFTGTNSDNQTETNVSTLKVKLDQNGVASLTNVSITMVNEQKLISEEDLNARGIANVYAINTTDNSNVNFYDVTSGATVTNGAVSVNADNQGQVNVANVVAAINSKYFAAQYADKKLNTRTANTEDAIKAALKDQKIDVNSVGYFKAPHTFTVNVKATSNTNGKSATLPVVVTVPNVAEPTVASVSKRIMHNAYYYDKDAKRVGTDSVKRYNSVSVLPNTTTINGKTYYQVVENGKAVDKYINAANIDGTKRTLKHNAYVYASSKKRANKVVLKKGEVVTTYGASYTFKNGQKYYKIGDNTDKTYVKVANF
binding: binds

Reference: patent publication US20100172938A1
